Results are given in words; binding and its absence hold for the method and conditions named.
What was measured:
Assay in all cases: phage ELISA, absorbance at 450 nm
Avidin = molecular target: Avidin
TNFa = molecular target: TNFa
myoglobulin = molecular target: myoglobulin
Visfatin = molecular target: Visfatin
CD7-Trx = molecular target: CD7-Trx
CD7 = molecular target: CD7
lysozyme = molecular target: lysozyme

B1: Peptide 1 specific to VEGF, bipodal-peptide binder (peptide)
peptide: HANFFQGSWTWENGKWTWKGWKYNQS
- binding (Avidin): no binding
- binding (TNFa): no binding

B2: Peptide 1 specific to nAchR, bipodal-peptide binder (peptide)
peptide: EASFWLGSWTWENGKWTWKGKGTLNR
- binding (Avidin): no binding
- binding (myoglobulin): no binding

B3: Peptide 1 specific to HSA, bipodal-peptide binder (peptide)
peptide: AASPYKGSWTWENGKWTWKGGWRMKM
- binding (Visfatin): no binding
- binding (CD7-Trx): no binding
- binding (TNFa): no binding

B4: Peptide 1 specific to MyD88, bipodal-peptide binder (peptide)
peptide: HSHAFYGSWTWENGKWTWKGNPGWWT
- binding (CD7): no binding
- binding (TNFa): no binding

B5: STAT3-specific bipodal-peptide binder Peptide 2 (peptide)
peptide: HGFQWPGSWTWENGKWTWKGAYQFLK
- binding (TNFa): no binding

B6: Peptide 2 specific to fibronectin ED-B, bipodal-peptide binder with tryptophan zipper (peptide)
peptide: HCSSAVGSWTWENGKWTWKGIIRLEQ
- binding (lysozyme): no binding
- binding (Visfatin): no binding
- binding (TNFa): no binding
- binding (myoglobulin): no binding
